Data published in the supplement of paper PMC12889115.
The other results are listed elsewhere or left out. Values are raw readings; no control value is given beside them.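 In the initial screen, polymyxin B was used at a concentration that permeabilizes Salmonella's outer membrane but not its inner membrane. Maximum growth was set by DMSO wells with or without polymyxin B. Since plates varied, data were ranked per plate, and compounds giving the lowest OD600 advanced as hits.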

Tested on: Salmonella enterica serovar Typhimurium SL1344
Assay: bacterial growth OD600 after 18 h with compound and polymyxin B; higher = more bacterial growth (less inhibition)
Settings: 50 µM, Mueller-Hinton broth

Row | Structure (SMILES) | bacterial growth OD600 (polymyxin B 1 µg/mL) | bacterial growth OD600 (polymyxin B 0.75 µg/mL)
1 | CCn1cc(CNc2ccc(-c3nc(COC)no3)cn2)cn1 | 1.03 | 
2 | COc1cccc(CN2CCc3nnc(C(CC(C)C)NC(=O)c4cc(C)cc(C)c4)n3CC2)c1O (configuration not stated) |  | 0.038
3 | Cc1ncc(-c2ccc(F)cc2)c(C2CCCN(C(=O)c3ccc(C(F)(F)F)cc3)C2)n1 (configuration not stated) |  | 0.002
4 | COc1ccccc1C1(CC(=O)N2CCN(C3CCCCC3)CC2)CC(=O)N(C)C1=O (configuration not stated) |  | 0.858
5 | Cc1n[nH]c(C)c1CNC(=O)c1cc(CN(C)Cc2ccccc2)on1 |  | 0.832
6 | COC(=O)c1cc(CNC(=O)Cc2nnc(-c3ccccc3)[nH]2)cc(NC(=O)/C=C/c2ccccc2)c1 |  | 0.8
7 | COc1cccc(C(=O)N(Cc2cccc(OCc3ccc(F)cc3)c2)C2CCCC2)c1OC |  | 0.004
8 | CC(C)c1noc(-c2ccc(N3CCNC(=O)C3C(C)C)nc2)n1 (configuration not stated) |  | 0.833
9 | CSc1ccc(C(=O)C2CCCN(C(=O)c3cc4ccccc4oc3=O)C2)cc1 (configuration not stated) | 0.608 | 
10 | COc1ccc(F)c(CC2(CCC(=O)N(CC3CCC3)CC3CCCO3)CCC(=O)N2)c1 (configuration not stated) |  | 0.783
11 | O=C(CC1(c2ccccc2Cl)CC(=O)N(C2CCCC2)C1=O)N1CCN(C(=O)c2ccco2)CC1 (configuration not stated) |  | 0.858
12 | O=C(c1coc(COc2cccc(F)c2F)n1)N1CCCC1 | 0.883 | 
13 | OCc1ccc(CN2CCCC(CCc3c(F)cccc3F)C2)o1 (configuration not stated) |  | 0.818
14 | COc1cccc(CN(C)C(=O)c2ccc3oc(Cc4ccccc4)nc3c2)c1 | 1.1 | 
15 | CN1CCN([C@@H]2CCN(Cc3ccc(N(C)c4ccccc4)cc3)C[C@H]2O)CC1 |  | 0.793
16 | Cc1ccc(CN(C)C(=O)c2ccc(OC3CCN(S(=O)(=O)N(C)C)CC3)cc2)o1 | 1.35 | 

Full records, quoted from the list.
`Cc1n[nH]c(C)c1CNC(=O)c1cc(CN(C)Cc2ccccc2)on1` in the list: bacterial growth OD600 (polymyxin B 0.75 µg/mL): 0.832
`COc1ccc(F)c(CC2(CCC(=O)N(CC3CCC3)CC3CCCO3)CCC(=O)N2)c1` (configuration not stated) in the list: bacterial growth OD600 (polymyxin B 0.75 µg/mL): 0.783

(further entries)

Row | Structure (SMILES) | bacterial growth OD600 (polymyxin B 1 µg/mL) | bacterial growth OD600 (polymyxin B 0.75 µg/mL)
17 | CC#CC(=O)N1CCc2onc(C(c3ccccc3)c3ccccc3)c2C1 |  | 0.006
18 | CCOc1ccccc1CN1CCC(CO)(Cc2ccccc2Cl)CC1 | 0.695 | 
19 | CCc1noc(C)c1C(=O)N1Cc2cc(C)ccc2OC(c2ccsc2)C1 (configuration not stated) |  | 0.023
20 | O=C1NCCCC[C@@H]1Nc1ccc(-c2nc(COc3ccccc3)no2)cn1 | 0.86 | 
21 | CCOc1ccc2nc(N3CCCC3C(=O)NCCCn3cccn3)nc(C)c2c1 (configuration not stated) |  | 0.808
22 | O=C(c1ccoc1)N1CCC2(CCCN(CC3CC3)C2=O)C1 (configuration not stated) | 0.912 | 
23 | C=CCC(=O)N1CCc2onc(-c3ccc(Cl)cc3)c2C1 |  | 0.915
24 | COc1ccc(CC(=O)NCC2CCCN(C(=O)c3cn4c(C)cccc4n3)C2)cc1 (configuration not stated) |  | 0.815
25 | COc1ccc(-c2nn(-c3ccccc3C)cc2CN2CCC(C(N)=O)CC2)cc1F | 0.937 | 
26 | COc1ccc(-c2cc(C)cc3c2OC(CNC(=O)CC2CCCCC2)C3)nn1 (configuration not stated) |  | 0.655
27 | COc1ccc(C)cc1S(=O)(=O)N1CCC(CO)(Cc2cccc(C(F)(F)F)c2)CC1 | 0 | 
28 | O=C(Cn1cncn1)N1CCC(C2CCN(Cc3cccc(F)c3F)CC2)C1 (configuration not stated) |  | 0.846
29 | CO[C@H]1[C@H](NC(=O)Cc2cccs2)c2ccccc2C12CCN(Cc1ccccc1C)CC2 |  | 0.77
30 | CC(C)CC(=O)Nc1ccnn1C1CCN(C(=O)c2ccccc2F)CC1 | 0.861 | 
31 | O=C(NC1CC1)C1CCCN(C2CCN(C(=O)CC3CCCC3)CC2)C1 (configuration not stated) |  | 0.813
32 | COc1cc(C)ccc1OCc1nc(C(=O)N2CCCO2)co1 | 0.855 | 
